These are yes or no findings as the source states them, for the method shown. Some binding calls cover weakened binding; strength is not graded here.

The test deals with Drosophila Recombination Associated Protein (DRAP), native 20 KDa species from Drosophila embryonic nuclear extracts (Drosophila melanogaster). Put plainly: retention on Centricon molecular weight cutoff filters; active material behaved as if >30 KDa in 500 mM NaCl.

B1: Drosophila Recombination Associated Protein (DRAP), native 20 KDa species from Drosophila embryonic nuclear extracts (enzyme)
chain: MASNNSSTTDLDSQVNVEDLPITFKVKYIGSEVARGLWGIKYTRRPVDIMVGVAKNLPPNKVLPNCELKVSTDGVQLEIISPKASINHWSYPIDTISYGVQDLVYTRVFAMIVVKDESSPHPFEVHAFVCDSRAMARKLTFALAGRLPGLLATGQGGNR
On to B1, for which the binding result is on record as “binds”.

These data come from patent US20050158751A1.
